# Source: the supplement of paper PMC8732350
# Structures can show the parent of a compound that is named as a salt. ± gives the standard deviation of the averaged measurements. Some of the results follow. Single values are uncertain here, since repeats match poorly.
# System: A549
# Experiment: surface PD-L1 immunofluorescence intensity relative to IFN-gamma-only control (ratio); higher = more PD-L1 expression
# Conditions: 10 µM; exposure time 24 h; IFN-gamma 100 ng/mL
row,Structure (SMILES),surface PD-L1 immunofluorescence intensity
1,Clc1cnc(Oc2ccc(Oc3ncc(Cl)cc3Cl)cc2)c(Cl)c1,1.03
2,C=C1[C@@H]2CC[C@H]3[C@]4(C)C[C@H](O[C@@H]5O[C@H](CO)[C@@H](OS(=O)(=O)O)[C@H](OS(=O)(=O)O)[C@H]5OC(=O)CC(C)C)C[C@@H](C(=O)O)[C@H]4CC[C@]3(C2)[C@@H]1O [Atractyloside potassium salt],0.943
3,CC(Cc1ccc(O)cc1)NCC(O)c1cc(O)cc(O)c1 (centres undefined) [Fenoterol hydrobromide],0.877
4,Cn1cnc(CCN)c1 [N _-Methylhistamine dihydrochloride],1.01
5,C1CCc2nnnn2CC1 [Pentylenetetrazole],0.944 ± 0.07
6,C=CC[C@]1(O)CC[C@H]2[C@@H]3CCC4=CC(=O)CCC4=C3C=C[C@@]21C [Altrenogest],0.979
7,C[C@]12CC[C@@H](O)C[C@@H]1CC[C@@H]1[C@@H]2CC[C@]2(C)C(=O)CC[C@@H]12 [Androsterone],1.03
8,"CNCC(O)c1ccc(O)cc1 (racemic) [(+,-)-Synephrine]",1.03
9,CN(C)CCc1ccc(O)cc1 [Hordenine],1.08
10,CC(=O)[C@H]1CC[C@H]2[C@@H]3CC[C@H]4C[C@](C)(O)CC[C@]4(C)[C@H]3CC[C@]12C [Ganaxolone],0.935
11,COc1ccc(N(C(=O)Oc2c(C)cccc2C)c2ccnc(Nc3ccc(N4CCN(C)CC4)cc3)n2)c(OC)c1,1.06
12,C#C[C@]1(O)CC[C@H]2[C@@H]3CCC4=CC(=O)CCC4=C3C=C[C@@]21CC [Gestrinone],0.953
13,CN1[C@@H]2C[C@@H](OC(=O)[C@H](CO)c3ccccc3)C[C@H]1[C@@H]1O[C@@H]12 [Scopolamine HBr],0.879
14,CN1[C@@H]2C[C@@H](OC(=O)[C@H](CO)c3ccccc3)C[C@H]1[C@@H]1O[C@@H]12 [Scopolamine hydrobromide],0.986
15,CN1[C@@H]2C[C@@H](OC(=O)[C@H](CO)c3ccccc3)C[C@H]1[C@@H]1O[C@@H]12 [Scopolamine hydrochloride],1.04
16,O=C(O)C1=CCCN(CCOC(c2ccc(C(F)(F)F)cc2)c2ccc(C(F)(F)F)cc2)C1 [CI 966 hydrochloride],0.985
17,CC(C)(O)[C@H]1O[C@H]2CC[C@@]3(C)[C@@](O)(CC[C@H]4Cc5c([nH]c6ccccc56)[C@@]43C)C2=CC1=O [Paxilline],1.088 ± 0.0039
18,O[C@H]1[C@H](O)[C@@H](O)CN2CC[C@H](O)[C@H]12 [Castanospermine],1.06
19,"NCC(CC(=O)O)c1ccc(Cl)cc1 (racemic) [Baclofen (R,S)]",0.87
20,N[C@@H]1C[C@H]1c1ccccc1 [Tranylcypromine hydrochloride],1.012 ± 0.0022
21,O=C1CC[C@@]2(O)[C@H]3Cc4ccc(O)c5c4[C@@]2(CCN3CC2CC2)[C@H]1O5 [Naltrexone hydrochloride dihydrate],0.957
22,CN[C@@H]1[C@@H](O)[C@@H](O[C@@H]2[C@@H](O)[C@H](O[C@H]3O[C@H](CN)CC[C@H]3N)[C@@H](N)C[C@H]2N)OC[C@]1(C)O.CN[C@@H]1[C@@H](O)[C@@H](O[C@@H]2[C@@H](O)[C@H](O[C@H]3O[C@H]([C@@H](C)N)CC[C@H]3N)[C@@H](N)C[C@H]2N)OC[C@]1(C)O.CN[C@@H]1[C@@H](O)[C@@H](O[C@@H]2[C@@H](O)[C@H](O[C@H]3O[C@H]([C@@H](C)NC)CC[C@H]3N)[C@@H](N)C[C@H]2N)OC[C@]1(C)O [Gentamicine sulfate],0.971
23,Cn1c(CCCC(=O)O)nc2cc(N(CCCl)CCCl)ccc21 [Bendamustine HCL],1.02

row,Structure (SMILES),surface PD-L1 immunofluorescence intensity
1,Oc1ccc2c3c1O[C@H]1c4[nH]c5ccccc5c4C[C@@]4(O)[C@@H](C2)N(CC2CC2)CC[C@]314 [Naltrindole hydrochloride],1.17
2,"Cc1cc(C)cc(C(=O)OC2C[C@H]3CC[C@@H](C2)N3C)c1 (some centres undefined) [Tropanyl-3,5-dimethylbenzoate]",0.997
3,CC(NC(C)(C)C)C(=O)c1cccc(Cl)c1 (centres undefined) [Bupropion hydrochloride],0.837
4,CC1(C)[C@H](C(=O)O[C@H](C#N)c2cccc(Oc3ccccc3)c2)[C@@H]1C=C(Br)Br [Deltamethrin],0.905
5,"CN1CCC2(C)c3cc(O)ccc3N(C)C12 (single isomer, unassigned; (-)) [(-)-Eseroline fumarate salt]",0.993
6,Cc1onc(O)c1CC(N)C(=O)O (racemic),1.12
7,CC(C)(C)c1cc(C=C(C#N)C#N)cc(Br)c1O,1.002 ± 0.0012
8,NC[C@H](CC(=O)O)c1ccc(Cl)cc1 [(R)-baclofen],1.01
9,O=c1c2ccccc2[se]n1-c1ccccc1 [Ebselen],1.038 ± 0.0046
10,CCCN(CCC)C1Cc2cc(OC)c(OC)cc2C1,0.945
11,CN1CCCCC1Cn1cc(C(=O)c2cc([N+](=O)[O-])ccc2I)c2ccccc21 (centres undefined),1.05
12,NCC(O)c1ccc(O)cc1 (centres undefined) [Octopamine hydrochloride],0.995
13,O=c1ccc2cc(O[C@@H]3O[C@H](CO)[C@@H](O)[C@H](O)[C@H]3O)c(O)cc2o1 [Aesculin (Esculin)],0.954
14,O=C(NCC1CCOCC1)c1cnc(Nc2ccc(Cl)cc2Cl)nc1C(F)(F)F,0.972
15,COC(=O)[C@@H](N)CCCNC(=N)N[N+](=O)[O-],0.987
16,COC(=O)[C@@H](N)CCCNC(=N)N[N+](=O)[O-] [L-NAME hydrochloride],1.02
17,O=C1Nc2ccccc2C2(CCN(CCc3ccc(C(F)(F)F)cc3)CC2)O1,0.988
18,CC(N)Cc1cnc[nH]1 (centres undefined),1.05
19,O=C1C=CC[C@@H]2[C@H]3CCCN4CCC[C@@H](CN12)[C@@H]34 [Sophocarpine],1.19
20,S=C=Nc1cccc(C2(N3CCCCC3)CCCCC2)c1 [Metaphit],1
21,CC(=O)O[C@H]1C[C@@H]2CC[C@@H]3[C@H](CC[C@@]4(C)[C@H]3C[C@H]([N+]3(C)CCCCC3)[C@@H]4OC(C)=O)[C@@]2(C)C[C@@H]1[N+]1(C)CCCCC1 [Pancuronium bromide],0.985
22,CC(=O)O[C@H]1C[C@@H]2CC[C@@H]3[C@H](CC[C@@]4(C)[C@H]3C[C@H]([N+]3(C)CCCCC3)[C@@H]4OC(C)=O)[C@@]2(C)C[C@@H]1[N+]1(C)CCCCC1 [Pancuronium (Pavulon)],1.04
23,CCCC(C)C1(CC)C(=O)NC(=O)NC1=O (centres undefined) [Pentobarbital],0.993

row,Structure (SMILES),surface PD-L1 immunofluorescence intensity
1,COP(=O)(OC)C(O)C(Cl)(Cl)Cl (centres undefined) [Trichlorfon],0.872
2,C[C@]12C[C@H]3S[C@H]3C[C@@H]1CC[C@@H]1[C@@H]2CC[C@]2(C)[C@@H](O)CC[C@@H]12 [Epitiostanol],1.01
3,CNC1CC(N)C(O)C(OC2OC(CO)C(O)C3OC4(OC(C(N)CO)C(O)C(O)C4O)OC23)C1O (centres undefined) [Hygromycin B],0.97
4,Cn1cc(C2=C(c3cn(C4CCN(Cc5ccccn5)CC4)c4ccccc34)C(=O)NC2=O)c2ccccc21,1.28
5,Cc1ccc2cc3c(ccc4ccccc43)c3c2c1CC3 [3-Methylcholanthrene],0.957
6,C=CCN1CC[C@]23c4c5ccc(O)c4O[C@H]2C(=O)CC[C@@]3(O)[C@H]1C5 [Naloxone hydrochloride],1.07
7,CC[C@@H](C(=O)[C@@H](C)[C@@H](O)[C@H](C)[C@@H]1O[C@@H]([C@@H](CC)C(=O)O)CC[C@@H]1C)[C@H]1O[C@]2(C=C[C@@H](O)[C@]3(CC[C@@](C)([C@H]4CC[C@](O)(CC)[C@H](C)O4)O3)O2)[C@H](C)C[C@@H]1C [Salinomycin (Procoxacin)],1.23
8,C(#CCN1CCCC1)CN1CCCC1 [Tremorine dihydrochloride],1.1
9,OC(Cc1ccncc1)C(Cl)(Cl)Cl (centres undefined),0.989
10,Cc1cccc(C)c1NC(=O)CN1CCCC1=O [Nefiracetam (Translon)],1.02
11,CS(=O)(=O)Nc1ccc(Cc2noc(-c3ccc4[nH]cc(CCN)c4c3)n2)cc1,0.959
12,C[C@]12CCC(=O)C=C1C=C[C@@H]1[C@@H]2CC[C@@]2(C)[C@H]1CC[C@@]2(O)CCC(=O)O [Canrenoic acid potassium salt],0.906
13,CCCC[N+]1(C)[C@@H]2C[C@@H](OC(=O)[C@H](CO)c3ccccc3)C[C@H]1[C@@H]1O[C@@H]12 (some centres undefined) [Butylscopolamine bromide (Scopolamine butylbromide)],1.11
14,Cc1cccc(Cc2c[nH]cn2)c1C [Detomidine HCl],1.12
15,N#CC(C#N)=Cc1ccc(O)c(O)c1 [AG 18 (Tyrphostin 23)],0.94
16,CC(C)c1cc2c(c(O)c1O)[C@@]1(C(=O)O)CCCC(C)(C)[C@@H]1CC2 [Carnosic acid],0.975
17,CC(C)c1cccc(C(C)C)c1O [Propofol],1
18,C[C@]12CC[C@H](O)C[C@H]1CC[C@@H]1[C@@H]2CC[C@]2(C)[C@@H](C3=CC(=O)OC3)CC[C@]12O [Digitoxigenin],1.01
19,"CC12NC(Cc3ccccc31)c1ccccc12 (single isomer, unassigned; (+)) [(+)-MK 801 maleate]",0.954
20,CCC(Oc1ccc(Cl)cc1)C(=O)OC1C[C@H]2CC[C@@H](C1)N2C (some centres undefined) [SM-21 maleate],1.13
21,CCCN1CCC[C@@H]2Cc3n[nH]cc3C[C@H]21 [(-)-Quinpirole hydrochloride],1.04
22,CN1C[C@H](CNC(=O)OCc2ccccc2)C[C@@H]2c3cccc4c3c(cn4C)C[C@H]21 [Metergoline],1.03 ± 0.072
23,CC(=O)O[C@H]1CC[C@@]2(C)C(=CC[C@@H]3[C@@H]2CC[C@]2(C)C(=O)CC[C@@H]32)C1 [Dehydroisoandosterone 3-acetate],0.984
